Test results reported in US10508140B2 (CAREGEN CO., LTD., priority 2016, dated 2019).
No end group written: not given here.

Assay: general procedure: peptide synthesis; chlorotrityl chloride resin
Conditions: whole synthesis

Sequence: WKWRSADTL
- crude mass: 0.73 g
- crude yield (scale of the general procedure 700 mg resin): 93.1%
